In PubChem BioAssay AID1259415 (National Center for Advancing Translational Sciences (NCATS), 2018):
About 18,000 (4.4%) of roughly 410,000 compounds were called active. The inconclusive results got no clear call from the source; some entries with a clear call stand among them for comparison. Cut-off read from the data, not from the text of the source: active = activity change below about -60%; inconclusive = no clear call, values can overlap the other calls; inactive = above about -39%.

Assay: qHTS Assay for inhibitors of the human cytomegalovirus (HCMV)
Conditions: HFF cells, HCMV-luciferase reporter, 72 h; at 57.5 µM; stronger effect = lower value
In short: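 Inhibition of viral replication was scored as loss of reporter luminescence in HFFs infected with HCMV-luciferase (MOI 1 PFU/cell) for 72 h; compounds tested at 2 doses, normalized to buffer and Salinomycin controls.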
% is set by controls: 0 for no effect and ±100 for the full control effect.

| Structure (SMILES) | activity change, negative = inhibition |
| --- | --- |
| c1ccc(-c2nc(N3CCOCC3)c3ccccc3n2)nc1 | inconclusive: -53% |
| CCCCC(CC)CNC(=O)c1ccc2c(=O)n(CCOC)c(=O)[nH]c2c1 (stereo not drawn) | inconclusive: -41.7% |
| COc1ccc(NC(=O)C2CCN(c3cc(C)nc(-c4ccccc4)n3)CC2)cc1 | inconclusive: -48.8% |
| CC(=O)c1cccc(S(=O)(=O)N2CCN(c3ccccc3F)CC2)c1 | inconclusive: -44.7% |
| CC(C)CN1C(=O)c2ccc(NC(=O)Cc3ccccc3)cc2C1=O | inconclusive: -43.3% |
| Cc1ccc2c(n1)sc1c(-c3ccc(Br)cc3)c(C#N)c(N)nc12 | inconclusive: -46.3% |
| COc1ccc(/C=C2\SC(=S)N(CCCC(=O)N3CCOCC3)C2=O)cc1 | inconclusive: -46% |
| Cc1ccc(OCC(=O)Nc2cc(Cl)ccc2-n2cncn2)c(C)c1 | inactive: 15% |
| O=C(Nc1ccc(F)cc1)OCCOc1ccc(Br)cc1 | inconclusive: -45.6% |
| CC1(C)CC(=O)C2=C(C1)OC(N)=C(C#N)C21CCC2(CC1)OCCO2 | inconclusive: -51.5% |
| OC(c1ccc(Cl)c(Cl)c1)c1ncc(-c2ccccc2Cl)[nH]1 (stereo not drawn) | inconclusive: -46.3% |
| Cc1cc(C)c(OCCCn2ccnc2)c(C)c1 | inactive: -3.16% |
| Cc1ccc(C(=O)Oc2cccc(NC(=O)c3ccco3)c2)cc1S(=O)(=O)N1CCC(C)CC1 | inconclusive: -47.9% |
| COc1ccccc1NC(=O)c1ccccc1S(=O)(=O)c1ccccc1[N+](=O)[O-] | inconclusive: -59.4% |
| CC1CN/C(=C\C(=O)c2ccccc2)C(=O)N1 (stereo not drawn) | inactive: 30.4% |
| CN(c1ccccc1)S(=O)(=O)c1ccc(C(=O)N2CCN(c3ccccc3Cl)CC2)cc1 | inactive: -25.5% |
| CN(Cc1cc(=O)n2ccsc2n1)c1ccccc1 | inactive: -27.8% |
| Fc1ccc(CNC(=S)Nc2cccc(Cl)c2)cc1 | inconclusive: -57.8% |
| Cc1ccc(Nc2nnc(SCC(=O)Nc3cccnc3Cl)s2)cc1C | inactive: -31.9% |
| Cn1c(=O)c2c(-c3ccccc3)n(-c3ccccc3F)cc2n(C)c1=O | inactive: 5.19% |
| Cc1ccc(CN2CCC(CNC(=O)c3cc4ccc5cccnc5c4[nH]3)CC2)cc1 | active: -106% |

| Structure (SMILES) | activity change, negative = inhibition |
| --- | --- |
| O=C(C[C@H]1C[C@H](C(=O)N2CCOCC2)[C@@]2(CCC3CCCC3)c3[nH]c4cc(-c5ccco5)ccc4c3CCN2C1=O)NCCCn1ccnc1 | active: -89.9% |
| O=C(CN1CCN(c2ccc(F)cc2)CC1)c1ccc(O)cc1O | inconclusive: 0% |
| CCOc1ccc(-c2[nH]ncc2-c2ccccc2)c(O)c1 | inconclusive: -50.4% |
| CN(c1ccccc1)S(=O)(=O)c1ccc2c(c1)OCCO2 | inconclusive: -44.5% |
| CCCC(=O)Nc1ccc2nn(-c3ccc(CC)cc3)nc2c1 | inactive: 66.8% |
| Cc1cnc2c(c1SCC(=O)N(C)c1ccccc1)c(=O)n(C)c(=O)n2C | inactive: 16.7% |
| CCN1CCN(/C=N/c2nc3c(s2)CCCC3)CC1 | active: -68.9% |
| CCN(CC)C(=O)CSc1ncccc1-c1nc2ccccc2[nH]1 | inconclusive: -44% |
| CCCCOC(=O)c1ccc(NC(=O)c2ccc3c(c2)CCN3S(=O)(=O)c2ccccc2)cc1 | inactive: -25.6% |
| O=S(=O)(c1cnc[nH]1)N1CCN(C(c2ccc(F)cc2)c2ccc(F)cc2)CC1 | inconclusive: -50.5% |
| O=C1/C(=C/c2ccco2)SC(=S)N1CC1CCCO1 (stereo not drawn) | inconclusive: -45.4% |
| CC(C)Cn1c(N)c(C(=O)COC(=O)c2ccc(Cl)cc2)c(=O)n(C)c1=O | inconclusive: -40.6% |
| Cc1cc2c(cc1S(=O)(=O)N1CCc3ccccc31)NC(=O)CO2 | inconclusive: -52.3% |
| O=C(NCc1ccc(F)cc1)c1cc(C2CCCCN2C(=O)c2ccc(Cl)cc2)on1 (stereo not drawn) | inactive: -13.7% |
| Cc1cc([N+](=O)[O-])ccc1NC(=O)Nc1ccc(F)cc1F | inconclusive: -51.8% |
| Cc1nnc(SCC(=O)c2ccc([N+](=O)[O-])cc2)s1 | inconclusive: -43.1% |
| Cc1ccc(NC2CCCN(C(=O)c3nonc3C)C2)cc1C (stereo not drawn) | inconclusive: -42.6% |
| S=P(NC1CCCCC1)(N1CC1)N1CC1 | inconclusive: -52% |
| O=C(Nc1ccccc1C(=O)OCc1cc(=O)n2c3c(sc2n1)CCCC3)c1ccc(Cl)cc1 | inconclusive: -48.4% |
| CN(Cc1ccc(Cl)c(Cl)c1)C(C(=O)NCc1ccccc1)c1ccc(C(F)(F)F)cc1 (stereo not drawn) | inconclusive: -41.5% |
| C[N+]1(CCC(=O)c2ccccc2)CCCCC1 | inactive: -4.65% |

Entries listed so far that have a cyano group, in the order listed:

| Structure (SMILES) | activity change, negative = inhibition |
| --- | --- |
| Cc1ccc2c(n1)sc1c(-c3ccc(Br)cc3)c(C#N)c(N)nc12 | inconclusive: -46.3% |
| CC1(C)CC(=O)C2=C(C1)OC(N)=C(C#N)C21CCC2(CC1)OCCO2 | inconclusive: -51.5% |

More entries follow.

| Structure (SMILES) | activity change, negative = inhibition |
| --- | --- |
| O=C(NNC1=C(C(=O)C(F)(F)F)CCC1)c1ccc(Cl)cc1 | inactive: 9.72% |
| CC1CCN(C(=O)COC(=O)Cn2cnc3ccccc32)CC1 | active: -66.8% |
| CCCNC(=O)Cc1cc(=O)[nH]c(=O)[nH]1 | inactive: -32.9% |
| O=C(/C=C/Nc1ccc(F)cc1)c1cccs1 | inactive: 16.6% |
| O=C1C2C3C=CC(C3)C2C(=O)N1Nc1c(Cl)cc(Cl)cc1Cl (stereo not drawn) | inconclusive: -50.3% |
| CCC(C)(C)NC(=O)c1cc(S(=O)(=O)N2CCc3ccccc32)cn1C | inconclusive: -49.9% |
| CCOC(=O)c1cccc(NC(=O)Cc2ccc(NC(=O)N3CCCCc4ccccc43)cc2)c1 | inconclusive: -49.8% |
| O=C(Nc1ccccc1Br)C1CCN(S(=O)(=O)c2cccs2)CC1 | active: -74.8% |
| COC(=O)CCc1ccc(OCC(O)CNC(C)C)cc1 (stereo not drawn) | active: -64.2% |
| CC(=O)c1ccc(N2CCN(c3ncc(C(F)(F)F)cc3Cl)CC2)cc1 | inconclusive: -49% |
| CC(=O)N1CC(C)Oc2ccc(S(=O)(=O)NC(CC(=O)O)c3ccccc3C)cc21 (stereo not drawn) | inactive: 0% |
| Cc1ccc(C(=O)N[C@H](C(=O)Nc2cccc(S(=O)(=O)N3CCOCC3)c2)C(C)C)cc1 | inactive: -13.1% |
| O=C(O)CCS(=O)(=O)c1ccc(-c2ccccc2)cc1 | inconclusive: -51.2% |
| C#CCN(C[C@@H]1[C@@H](OC(=O)NCc2ccco2)[C@@H](OC(=O)NCc2ccco2)CN(C(=O)OC(C)C)N1C(=O)OC(C)C)S(=O)(=O)c1ccc(C)cc1 | inconclusive: -50.3% |
| COc1ccc(NC(=S)N(CCCN2CCC(C)CC2)Cc2cccs2)cc1Cl | active: -89.6% |
| Cc1c(C(=O)N2CCN(c3ccccn3)CC2)cccc1[N+](=O)[O-] | inconclusive: -41% |
| COc1ccccc1NC(=O)/C(C#N)=C/c1c(C)nn(-c2ccc(F)cc2)c1Cl | inconclusive: -45.8% |
| COCCOC(=O)C1=C(C)NC(C)=C(C(=O)OC(C)C)C1c1cccc([N+](=O)[O-])c1 (stereo not drawn) | inconclusive: -58.1% |
| Cc1cc(N2CCN(C)CC2)ccc1NC(=O)c1cccc(S(=O)(=O)N2CCc3ccccc3C2)c1 | inconclusive: -58.2% |
| c1ccc2c(-c3[nH]ncc3CNCCCn3ncc4ccccc43)cccc2c1 | inconclusive: -50.2% |
| COc1ccc(-c2cc(C(F)(F)F)n3nc(-c4ccc(Cl)cc4)cc3n2)cc1OC | inactive: 1.33% |

Ordered by length of the SMILES (largest number first): 3 of the compounds above

| Structure (SMILES) | activity change, negative = inhibition |
| --- | --- |
| CCOC(=O)c1cccc(NC(=O)Cc2ccc(NC(=O)N3CCCCc4ccccc43)cc2)c1 | inconclusive: -49.8% |
| Cn1c(=O)c2c(-c3ccccc3)n(-c3ccccc3F)cc2n(C)c1=O | inactive: 5.19% |
| CN(Cc1cc(=O)n2ccsc2n1)c1ccccc1 | inactive: -27.8% |

Next part

| Structure (SMILES) | activity change, negative = inhibition |
| --- | --- |
| Cc1ccccc1C(=O)Nc1cc(-c2cc(C(C)(C)C)oc2C)nn1C | active: -62.8% |
| CC(CCN1CCN=C1Nc1ccccc1)c1ccccc1 (stereo not drawn) | inconclusive: -49.7% |
| CC(C)(C)c1ccc(OCCNC(=S)NC(=O)c2cccnc2)cc1 | inactive: -10.9% |
| Cc1ccc(-c2c[n+](Cc3ccc(Cl)c(Cl)c3)c3n2CCC3)cc1 | active: -99.4% |
| Cc1c(-c2nc(-c3ccc4c(c3)[nH]c(=O)n4C)no2)cccc1[N+](=O)[O-] | inactive: -29.1% |
| O=C(c1cnc(N2CCOCC2)c2ccccc12)N1CCN(c2ccc(F)cc2)CC1 | inconclusive: -41.3% |
| COc1cc(/C=N/NC(=O)Cn2nnc3ccccc32)ccc1O | inconclusive: -45.6% |
| C/C=C(\C)C(=O)OC1CC(C)(C)C[C@H]2C3=CC[C@@H]4[C@@]5(C)CCC(O[C@@H]6O[C@@H](C(=O)O)[C@@H](O)C(O[C@@H]7OC[C@H](O)[C@@H](O)[C@@H]7O[C@@H]7OC(CO)C(O)[C@@H](O)[C@@H]7O)C6O[C@@H]6OC(CO)C(O)C(O)C6O)[C@@](C)(CO)[C@@H]5CC[C@]4(C)[C@]3(C)CC(O)[C@@]12CO (stereo partly drawn) | inconclusive: -43.6% |
| Cc1ccc(NC(=S)NNc2ccc(C(=O)O)cc2[N+](=O)[O-])cc1C | inconclusive: -47.7% |
| CCCCOC(=O)C(C)Sc1n[nH]c(=O)[nH]c1=O (stereo not drawn) | inconclusive: -47.5% |
| CC(C)n1c(N2CCN(C(=O)Nc3ccc(F)cc3F)CC2)nc2ccccc21 | inconclusive: -48.4% |
| Cc1cc(C)cc(NC(=O)CSCc2cc(=O)c3cc(Cl)ccc3[nH]2)c1 | inactive: 2.97% |
| Cc1cccc(NC(=O)Cn2nc(C)c3nn(-c4ccc(Cl)cc4)c(C)c3c2=O)c1C | inconclusive: -47.4% |
| O=C(NCCc1ccccc1O)c1cc2c(cc1[N+](=O)[O-])OCO2 | inactive: 32.3% |
| Clc1cccc(-c2cccc3nccn23)c1Cl | active: -79.3% |
| COCCCNC(=O)CSc1nc2nc(C)c(Cc3ccccc3Cl)c(C)n2n1 | inactive: -8.85% |
| COc1cccc(CNC(=O)c2cc(-c3cccs3)nc3ccccc23)c1 | inactive: 13.6% |
| CCN1CCN(CC(=O)Nc2ccc(C)c(Br)c2)CC1 | inactive: 82.6% |
| CN(CC(=O)Nc1ccc(F)cc1)C(=O)COc1ccc(C(=O)c2ccccc2)cc1 | inconclusive: -51% |
| COC(=O)c1ccc(NC(=O)CC2C(=O)N(c3ccccc3)C(=O)N2C2CCCC2)cc1 (stereo not drawn) | inactive: -0.604% |
